Results taken from patent publication US20110028719A1, “SCREENING METHODS FOR AMYLOID BETA MODULATORS” (priority 2006, published 2011).
At least one compound was matched to its structure with a doubt left.

Chains of the proteins cited; added tags and fusions are not shown. Residues count along the entry.
UniProt P05067, 672-713 limits assumed: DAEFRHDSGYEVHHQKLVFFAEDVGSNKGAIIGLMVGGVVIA

Molecular target: immobilized Aβ fibrils (Homo sapiens, UniProt P05067)
Experiment: FAC-MS assay of free Aβ monomer (indicator) binding to immobilized Aβ fibrils in the presence of test compounds
Details: FAC-MS screen; shift of free Aβ monomer breakthrough on immobilized Aβ fibrils in presence of compound; scale not given

| Structure (SMILES) | Aβ Shift |
| --- | --- |
| CC12CC3CC(C)(C1)CC(N)(C3)C2 [drawing 39] | 1 |
| CC(N)C12CC3CC(C)(CC(C)(C3)C1)C2 (stereo not drawn) [drawing 35] | 1 |
| CC12CC3CC(N)(C1)CC(CO)(C3)C2 (stereo not drawn) | 1 |
